From paper PMC5751184
No constants are given. Whether binding was seen depends on the method and setting. In cells and extracts the contact can be indirect. Some results given as binding are weak or reduced against the parent protein; the word gives no strength.

Sequences of proteins named here, by UniProt entry; tags and fusion partners are left off. A change or cut given only in a name is not applied to a line headed by its entry. A line that says so, or that is headed by a name, gives the form on record, which may keep a tag or linker. Residues count along the entry.
CARMA2sh, endogenous in HaCaT cells (human (endogenous in HaCaT)) (Q9BXL6, residues 1-740): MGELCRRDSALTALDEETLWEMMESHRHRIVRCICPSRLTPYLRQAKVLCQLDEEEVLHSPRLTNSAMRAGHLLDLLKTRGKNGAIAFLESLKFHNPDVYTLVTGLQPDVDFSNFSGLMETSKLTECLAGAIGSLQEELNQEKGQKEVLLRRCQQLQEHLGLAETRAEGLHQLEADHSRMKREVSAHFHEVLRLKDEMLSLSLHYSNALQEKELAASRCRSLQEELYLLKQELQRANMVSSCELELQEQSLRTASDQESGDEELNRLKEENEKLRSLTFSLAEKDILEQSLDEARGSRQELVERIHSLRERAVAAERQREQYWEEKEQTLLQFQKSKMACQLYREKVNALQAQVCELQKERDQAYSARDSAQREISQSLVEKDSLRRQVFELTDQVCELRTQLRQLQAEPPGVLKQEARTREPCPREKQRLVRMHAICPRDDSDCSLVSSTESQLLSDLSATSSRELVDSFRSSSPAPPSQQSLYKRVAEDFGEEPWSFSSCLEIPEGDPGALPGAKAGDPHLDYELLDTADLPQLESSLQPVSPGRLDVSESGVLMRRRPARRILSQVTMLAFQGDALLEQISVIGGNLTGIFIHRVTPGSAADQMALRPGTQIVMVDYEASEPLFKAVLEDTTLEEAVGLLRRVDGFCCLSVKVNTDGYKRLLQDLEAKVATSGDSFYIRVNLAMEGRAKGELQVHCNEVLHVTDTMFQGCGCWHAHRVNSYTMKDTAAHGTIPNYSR
FLAG-tagged CARMA2shE138A (psoriasis-linked mutant) (Q9BXL6, form named): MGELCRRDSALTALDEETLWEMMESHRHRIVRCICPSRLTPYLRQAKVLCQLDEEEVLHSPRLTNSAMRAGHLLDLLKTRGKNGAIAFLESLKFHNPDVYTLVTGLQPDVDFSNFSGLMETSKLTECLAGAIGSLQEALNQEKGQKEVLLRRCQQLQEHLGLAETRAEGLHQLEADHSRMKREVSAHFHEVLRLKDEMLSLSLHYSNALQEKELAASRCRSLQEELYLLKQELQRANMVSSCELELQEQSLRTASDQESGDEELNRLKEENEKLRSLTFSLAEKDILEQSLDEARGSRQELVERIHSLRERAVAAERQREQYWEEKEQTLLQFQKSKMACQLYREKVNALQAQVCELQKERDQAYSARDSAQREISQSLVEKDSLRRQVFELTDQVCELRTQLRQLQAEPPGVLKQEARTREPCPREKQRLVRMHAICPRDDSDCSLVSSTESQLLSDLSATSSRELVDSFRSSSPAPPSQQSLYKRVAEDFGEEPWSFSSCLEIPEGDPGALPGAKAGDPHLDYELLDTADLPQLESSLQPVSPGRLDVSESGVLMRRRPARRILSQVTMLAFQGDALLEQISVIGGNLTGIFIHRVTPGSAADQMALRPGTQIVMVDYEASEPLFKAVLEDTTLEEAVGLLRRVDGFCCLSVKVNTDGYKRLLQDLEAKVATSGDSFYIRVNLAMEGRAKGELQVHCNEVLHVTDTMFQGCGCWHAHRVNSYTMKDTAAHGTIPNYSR
FLAG-tagged CARMA2shE142G (psoriasis-linked mutant) (Q9BXL6, form named): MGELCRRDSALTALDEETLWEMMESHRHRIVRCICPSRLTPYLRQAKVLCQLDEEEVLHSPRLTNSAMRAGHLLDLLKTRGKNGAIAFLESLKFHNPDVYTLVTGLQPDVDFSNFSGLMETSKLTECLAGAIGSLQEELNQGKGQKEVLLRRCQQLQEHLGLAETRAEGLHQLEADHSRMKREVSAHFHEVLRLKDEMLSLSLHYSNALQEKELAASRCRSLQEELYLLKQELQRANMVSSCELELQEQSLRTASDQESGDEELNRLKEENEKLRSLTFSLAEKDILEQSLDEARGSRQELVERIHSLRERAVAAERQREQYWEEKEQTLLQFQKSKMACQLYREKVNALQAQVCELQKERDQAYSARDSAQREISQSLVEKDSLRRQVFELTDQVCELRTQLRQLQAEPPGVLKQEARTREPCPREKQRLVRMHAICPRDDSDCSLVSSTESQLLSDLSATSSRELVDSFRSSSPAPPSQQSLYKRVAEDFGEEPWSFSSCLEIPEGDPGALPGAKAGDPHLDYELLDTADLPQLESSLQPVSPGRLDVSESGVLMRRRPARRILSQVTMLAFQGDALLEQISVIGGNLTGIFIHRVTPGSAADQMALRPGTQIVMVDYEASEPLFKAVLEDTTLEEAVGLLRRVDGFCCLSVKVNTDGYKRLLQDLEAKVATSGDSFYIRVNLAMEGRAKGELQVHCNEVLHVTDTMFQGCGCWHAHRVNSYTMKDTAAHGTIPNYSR
UniProt Q9UBF6: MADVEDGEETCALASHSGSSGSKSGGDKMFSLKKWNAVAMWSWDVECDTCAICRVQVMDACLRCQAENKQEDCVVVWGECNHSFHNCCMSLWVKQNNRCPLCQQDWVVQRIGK

Experiments:
[1] = target: FLAG-tagged CARMA2sh (human) (UniProt Q9BXL6); test: co-IP; HEK293T cotransfected with FLAG-tagged CARMA2sh (wt or mutant) and HA-tagged RNF7; lysates after 24 h immunoprecipitated with anti-FLAG, blot with anti-HA; lysis buffer 150 mM NaCl, 20 mM HEPES pH 7.4, 1% Triton X-100, 10% glycerol
[2] = target: FLAG-tagged CARMA2shE138A (psoriasis-linked mutant) (human) (UniProt Q9BXL6); test: as above
[3] = target: FLAG-tagged CARMA2shE142G (psoriasis-linked mutant) (human) (UniProt Q9BXL6); test: as above
[4] = target: CARMA2sh, endogenous in HaCaT cells (human (endogenous in HaCaT)) (UniProt Q9BXL6); test: co-IP; endogenous proteins in HaCaT lysates, cells untreated or stimulated with IL-1β for 30 min; anti-myc as control antibody; immunoblot

binding [1]	binding [2]	binding [3]	binding [4]	Substance
binds	binds	binds	–	HA-tagged RNF7 (from UniProt Q9UBF6 1-113)
–	–	–	binds	RNF7, endogenous in HaCaT cells (from UniProt Q9UBF6 1-113)
